Laboratory results: the supplement of paper PMC10849652
The other results are listed elsewhere or left out.

Protein sequences, listed by entry. Tags and fused reporters are not part of them. Lines headed by an entry give the natural chain unless they say otherwise; changes in a name come on top.
UniProt Q9Y5N5: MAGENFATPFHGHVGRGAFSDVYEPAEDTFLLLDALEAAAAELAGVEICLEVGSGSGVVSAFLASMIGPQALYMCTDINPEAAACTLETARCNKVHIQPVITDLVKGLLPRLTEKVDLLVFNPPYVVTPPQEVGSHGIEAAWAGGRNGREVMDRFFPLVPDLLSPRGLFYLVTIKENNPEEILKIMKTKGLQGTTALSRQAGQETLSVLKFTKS
UniProt Q6IBW4: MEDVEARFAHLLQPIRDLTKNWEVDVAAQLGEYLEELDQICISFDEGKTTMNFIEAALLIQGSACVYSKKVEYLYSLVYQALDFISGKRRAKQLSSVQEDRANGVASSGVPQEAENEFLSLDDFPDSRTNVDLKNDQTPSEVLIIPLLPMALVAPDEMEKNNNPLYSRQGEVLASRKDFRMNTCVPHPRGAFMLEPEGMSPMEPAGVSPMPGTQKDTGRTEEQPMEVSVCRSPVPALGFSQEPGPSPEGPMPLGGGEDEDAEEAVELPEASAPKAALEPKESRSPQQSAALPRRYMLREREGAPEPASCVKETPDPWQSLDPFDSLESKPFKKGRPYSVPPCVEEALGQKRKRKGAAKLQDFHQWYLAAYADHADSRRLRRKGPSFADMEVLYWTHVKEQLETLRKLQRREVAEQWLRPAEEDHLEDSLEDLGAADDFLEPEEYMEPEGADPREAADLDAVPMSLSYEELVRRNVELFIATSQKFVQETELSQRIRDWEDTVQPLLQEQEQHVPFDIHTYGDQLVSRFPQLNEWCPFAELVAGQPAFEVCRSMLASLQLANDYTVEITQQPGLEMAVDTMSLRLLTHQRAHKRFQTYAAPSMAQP
UniProt O43639, whole entry, looked up: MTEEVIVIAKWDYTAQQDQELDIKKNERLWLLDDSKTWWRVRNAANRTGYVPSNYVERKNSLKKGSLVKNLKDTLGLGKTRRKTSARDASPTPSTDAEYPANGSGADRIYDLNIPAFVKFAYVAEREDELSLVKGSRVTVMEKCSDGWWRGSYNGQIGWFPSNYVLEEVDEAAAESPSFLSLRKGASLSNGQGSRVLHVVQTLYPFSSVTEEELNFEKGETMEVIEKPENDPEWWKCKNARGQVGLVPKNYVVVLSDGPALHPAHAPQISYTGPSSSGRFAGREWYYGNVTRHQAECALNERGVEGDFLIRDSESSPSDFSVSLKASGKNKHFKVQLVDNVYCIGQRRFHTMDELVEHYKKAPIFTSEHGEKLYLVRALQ
UniProt B2RTY4: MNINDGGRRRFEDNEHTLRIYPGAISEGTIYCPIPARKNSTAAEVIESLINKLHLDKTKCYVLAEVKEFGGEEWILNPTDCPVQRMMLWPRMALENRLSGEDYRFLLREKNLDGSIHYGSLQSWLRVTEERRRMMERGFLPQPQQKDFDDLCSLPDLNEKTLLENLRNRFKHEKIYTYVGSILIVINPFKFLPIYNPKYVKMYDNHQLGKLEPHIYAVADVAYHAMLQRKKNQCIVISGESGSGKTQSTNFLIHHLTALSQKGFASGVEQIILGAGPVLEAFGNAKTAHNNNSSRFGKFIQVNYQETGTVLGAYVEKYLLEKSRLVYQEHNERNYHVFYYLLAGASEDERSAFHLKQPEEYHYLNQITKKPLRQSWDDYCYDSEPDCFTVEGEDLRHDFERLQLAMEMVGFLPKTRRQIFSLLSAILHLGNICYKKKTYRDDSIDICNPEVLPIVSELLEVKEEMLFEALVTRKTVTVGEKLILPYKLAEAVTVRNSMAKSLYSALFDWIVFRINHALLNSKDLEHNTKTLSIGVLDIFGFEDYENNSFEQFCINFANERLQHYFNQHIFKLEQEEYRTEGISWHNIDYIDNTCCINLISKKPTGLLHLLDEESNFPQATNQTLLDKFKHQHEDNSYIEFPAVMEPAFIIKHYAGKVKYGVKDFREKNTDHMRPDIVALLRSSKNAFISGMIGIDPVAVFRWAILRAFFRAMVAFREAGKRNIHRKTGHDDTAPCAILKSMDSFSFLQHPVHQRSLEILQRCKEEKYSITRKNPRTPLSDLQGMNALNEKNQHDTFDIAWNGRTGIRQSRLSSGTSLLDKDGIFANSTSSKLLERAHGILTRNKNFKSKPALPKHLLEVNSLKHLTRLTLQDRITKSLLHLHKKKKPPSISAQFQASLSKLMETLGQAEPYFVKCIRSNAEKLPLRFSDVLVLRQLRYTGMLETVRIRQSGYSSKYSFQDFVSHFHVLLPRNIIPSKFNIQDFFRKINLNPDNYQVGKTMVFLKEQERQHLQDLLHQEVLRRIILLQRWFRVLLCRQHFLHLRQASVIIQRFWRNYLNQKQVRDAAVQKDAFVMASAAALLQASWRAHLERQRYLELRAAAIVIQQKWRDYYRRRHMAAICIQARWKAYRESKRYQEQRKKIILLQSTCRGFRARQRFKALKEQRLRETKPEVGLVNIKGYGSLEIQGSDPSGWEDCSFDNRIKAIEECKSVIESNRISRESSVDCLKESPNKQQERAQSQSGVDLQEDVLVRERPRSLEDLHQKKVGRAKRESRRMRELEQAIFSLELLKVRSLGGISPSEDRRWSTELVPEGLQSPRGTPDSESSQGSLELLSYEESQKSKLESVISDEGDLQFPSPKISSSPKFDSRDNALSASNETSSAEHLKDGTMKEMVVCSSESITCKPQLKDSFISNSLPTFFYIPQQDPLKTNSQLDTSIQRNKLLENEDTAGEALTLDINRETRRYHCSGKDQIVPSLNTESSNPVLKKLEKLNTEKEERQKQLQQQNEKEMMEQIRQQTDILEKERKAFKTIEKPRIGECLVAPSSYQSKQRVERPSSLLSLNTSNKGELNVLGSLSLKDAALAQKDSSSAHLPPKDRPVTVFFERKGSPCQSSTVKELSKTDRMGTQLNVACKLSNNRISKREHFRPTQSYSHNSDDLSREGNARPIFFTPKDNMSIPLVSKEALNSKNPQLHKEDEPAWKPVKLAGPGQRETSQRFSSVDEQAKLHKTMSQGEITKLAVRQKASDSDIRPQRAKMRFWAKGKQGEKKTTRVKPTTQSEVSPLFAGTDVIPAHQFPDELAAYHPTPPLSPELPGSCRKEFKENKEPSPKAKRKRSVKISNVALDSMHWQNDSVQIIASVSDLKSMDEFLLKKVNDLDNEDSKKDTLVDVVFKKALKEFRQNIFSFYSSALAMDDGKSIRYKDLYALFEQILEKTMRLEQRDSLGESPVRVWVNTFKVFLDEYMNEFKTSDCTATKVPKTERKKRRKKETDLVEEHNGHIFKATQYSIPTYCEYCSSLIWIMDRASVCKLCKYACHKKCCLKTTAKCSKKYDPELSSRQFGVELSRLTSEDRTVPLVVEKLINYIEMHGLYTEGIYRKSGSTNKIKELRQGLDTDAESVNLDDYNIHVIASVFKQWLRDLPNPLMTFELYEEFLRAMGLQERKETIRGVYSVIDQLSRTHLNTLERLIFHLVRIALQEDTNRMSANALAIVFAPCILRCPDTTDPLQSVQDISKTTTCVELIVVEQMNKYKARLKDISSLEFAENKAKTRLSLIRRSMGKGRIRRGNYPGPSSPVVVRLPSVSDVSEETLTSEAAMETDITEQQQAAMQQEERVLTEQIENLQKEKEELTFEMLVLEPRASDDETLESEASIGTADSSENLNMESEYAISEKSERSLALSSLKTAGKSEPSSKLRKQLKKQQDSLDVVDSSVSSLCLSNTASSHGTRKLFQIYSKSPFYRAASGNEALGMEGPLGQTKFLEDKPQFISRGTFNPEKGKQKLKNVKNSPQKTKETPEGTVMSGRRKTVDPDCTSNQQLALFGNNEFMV
NBDY, A0A0U1RRE5, UniProt A0A0U1RRE5, whole entry, looked up: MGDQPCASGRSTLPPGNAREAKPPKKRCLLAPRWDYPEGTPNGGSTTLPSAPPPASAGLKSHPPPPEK
UniProt P08590, whole entry, looked up: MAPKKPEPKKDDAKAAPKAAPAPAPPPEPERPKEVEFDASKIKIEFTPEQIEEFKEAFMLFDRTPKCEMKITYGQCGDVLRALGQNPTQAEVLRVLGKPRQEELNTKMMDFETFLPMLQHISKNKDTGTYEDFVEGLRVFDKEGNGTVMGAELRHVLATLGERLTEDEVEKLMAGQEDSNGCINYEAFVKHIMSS
UniProt Q32MK0: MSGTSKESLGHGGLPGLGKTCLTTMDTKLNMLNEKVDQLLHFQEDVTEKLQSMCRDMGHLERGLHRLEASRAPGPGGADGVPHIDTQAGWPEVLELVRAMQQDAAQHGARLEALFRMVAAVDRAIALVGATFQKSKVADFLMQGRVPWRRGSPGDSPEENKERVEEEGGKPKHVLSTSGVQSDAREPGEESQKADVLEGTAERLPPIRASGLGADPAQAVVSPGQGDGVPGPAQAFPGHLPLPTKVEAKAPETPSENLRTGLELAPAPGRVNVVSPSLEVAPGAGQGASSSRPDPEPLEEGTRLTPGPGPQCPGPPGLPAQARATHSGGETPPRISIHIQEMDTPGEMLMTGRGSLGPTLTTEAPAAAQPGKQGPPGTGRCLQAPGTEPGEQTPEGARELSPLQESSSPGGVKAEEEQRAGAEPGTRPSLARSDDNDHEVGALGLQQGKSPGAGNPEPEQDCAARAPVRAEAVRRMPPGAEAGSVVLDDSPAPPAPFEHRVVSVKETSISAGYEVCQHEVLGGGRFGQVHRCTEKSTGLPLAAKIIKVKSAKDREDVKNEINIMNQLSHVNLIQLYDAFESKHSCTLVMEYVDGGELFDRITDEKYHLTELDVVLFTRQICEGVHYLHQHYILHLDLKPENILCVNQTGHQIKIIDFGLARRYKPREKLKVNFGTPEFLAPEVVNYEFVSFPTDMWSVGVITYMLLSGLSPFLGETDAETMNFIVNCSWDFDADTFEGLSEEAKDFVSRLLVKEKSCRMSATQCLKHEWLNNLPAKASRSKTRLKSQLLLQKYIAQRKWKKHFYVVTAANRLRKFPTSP
UniProt P49321, whole entry, looked up: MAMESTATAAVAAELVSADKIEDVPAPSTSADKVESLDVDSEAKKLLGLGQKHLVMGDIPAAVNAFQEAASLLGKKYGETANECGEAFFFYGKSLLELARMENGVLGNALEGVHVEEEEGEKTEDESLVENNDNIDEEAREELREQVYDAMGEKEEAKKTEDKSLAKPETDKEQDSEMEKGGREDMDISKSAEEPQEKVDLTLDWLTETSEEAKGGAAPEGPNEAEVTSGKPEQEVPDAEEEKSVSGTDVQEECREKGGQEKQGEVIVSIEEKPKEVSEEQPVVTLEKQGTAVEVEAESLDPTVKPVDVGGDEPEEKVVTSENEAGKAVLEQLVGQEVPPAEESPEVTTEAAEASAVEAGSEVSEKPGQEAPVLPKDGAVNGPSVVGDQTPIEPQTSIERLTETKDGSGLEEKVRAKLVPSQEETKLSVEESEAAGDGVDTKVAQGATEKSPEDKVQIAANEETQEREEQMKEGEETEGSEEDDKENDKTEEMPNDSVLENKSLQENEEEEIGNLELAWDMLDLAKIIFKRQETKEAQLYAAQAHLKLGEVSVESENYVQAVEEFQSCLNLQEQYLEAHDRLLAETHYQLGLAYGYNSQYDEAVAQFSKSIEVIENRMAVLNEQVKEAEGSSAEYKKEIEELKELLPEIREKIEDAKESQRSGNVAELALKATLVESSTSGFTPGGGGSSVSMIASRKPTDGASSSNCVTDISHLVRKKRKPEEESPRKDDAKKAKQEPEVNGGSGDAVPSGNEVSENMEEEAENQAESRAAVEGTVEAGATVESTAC
UniProt Q6NZ67, whole entry, looked up: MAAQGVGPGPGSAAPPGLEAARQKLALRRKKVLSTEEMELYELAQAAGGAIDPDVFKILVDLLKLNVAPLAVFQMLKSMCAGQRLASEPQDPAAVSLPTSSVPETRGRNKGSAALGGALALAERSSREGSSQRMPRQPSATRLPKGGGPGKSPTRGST
UniProt O43776: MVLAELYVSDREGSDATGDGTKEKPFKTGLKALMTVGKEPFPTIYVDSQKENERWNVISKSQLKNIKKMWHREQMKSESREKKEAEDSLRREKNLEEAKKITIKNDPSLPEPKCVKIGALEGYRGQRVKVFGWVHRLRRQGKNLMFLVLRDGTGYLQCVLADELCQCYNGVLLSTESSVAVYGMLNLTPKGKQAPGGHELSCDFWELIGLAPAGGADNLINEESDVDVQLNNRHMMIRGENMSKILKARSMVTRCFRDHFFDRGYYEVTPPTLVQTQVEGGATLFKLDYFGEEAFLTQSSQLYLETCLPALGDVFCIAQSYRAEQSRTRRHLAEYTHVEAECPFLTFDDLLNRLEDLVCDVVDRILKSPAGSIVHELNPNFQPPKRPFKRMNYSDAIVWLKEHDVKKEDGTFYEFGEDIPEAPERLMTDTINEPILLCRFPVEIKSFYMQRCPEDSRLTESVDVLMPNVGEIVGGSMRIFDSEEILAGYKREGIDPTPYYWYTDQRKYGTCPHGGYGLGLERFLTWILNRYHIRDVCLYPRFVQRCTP
UniProt P60660, whole entry, looked up: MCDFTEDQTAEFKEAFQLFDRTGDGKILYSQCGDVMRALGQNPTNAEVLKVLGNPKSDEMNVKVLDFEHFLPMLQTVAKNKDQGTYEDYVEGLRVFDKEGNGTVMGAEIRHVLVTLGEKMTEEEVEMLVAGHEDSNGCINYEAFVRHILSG

Key:
Assay in all cases: log2 fold change, soluble protein after heating vs DMSO (PISA); higher = thermal stabilisation; K562 lysate, 10 uM; active = over 0.2 and 3.5 SD of the protein, either way, in both replicates (recomputed)
[1] = compound: CN1CC[C@H](c2c(O)cc(O)c3c(=O)cc(-c4ccccc4Cl)oc23)[C@H](O)C1 [alvocidib]
Outline: (§1)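 Soluble protein was defined as the supernatant remaining after 21,000xg for 90 min, following pooling of heated aliquots and adjustment to 0.5% NP-40 at 4°C. Before that, crude K562 extract at 1 mg/mL protein in PBS pH 7.4 with 1 mM MgCl2 was treated with 10 μM compound for 30 min and heated for 3 min across 48°C-58°C. Quantification used TMTpro 16plex LC-MS/MS with channel sums equalised, and values are log-two fold changes in thermal stability relative to solvent controls from duplicates.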

[2] = compound: CN1CCc2c(c3ccccc3n2Cc2ccc(C(=O)NO)cc2)C1 [Tubastatin A]
Outline: as §1

[3] = compound: CNC(=O)C1=CC=CC=C1NC2=NC(=NC=C2Cl)NC3=C(C=C(C=C3)N4CCOCC4)OC
Outline: as §1

[4] = compound: CNC(=O)c1ccc(Nc2ncc(C(F)(F)F)c(NCc3nccnc3N(C)S(C)(=O)=O)n2)cc1 [defactinib]
Outline: as §1

[5] = compound: CNc1nc(-c2ccc3c(N)n[nH]c3c2)cc(N2C[C@@H](C(=O)NC3CCCCC3)CC[C@H]2C)n1
Outline: as §1

[6] = compound: COC(=O)N[C@@H](C)CNc1nccc(-c2cn(C(C)C)nc2-c2cc(Cl)cc(NS(C)(=O)=O)c2F)n1 [encorafenib]
Outline: as §1

[7] = compound: COC(=O)[C@H](CCSC)NC(=O)C1=C(C=C(C=C1)NC[C@H](CS)N)C2=CC=CC=C2
Outline: as §1

[8] = compound: COc1cc(Nc2ncc3c(n2)-c2ccc(Cl)cc2C(c2c(F)cccc2OC)=NC3)ccc1C(=O)O [alisertib]
Outline: as §1

[9] = compound: COc1cc2nc(-c3cc(F)ccc3O)nc(N[C@@H]3CNC[C@H]3C(C)(C)O)c2cc1OC
Outline: as §1

[10] = compound: COc1cc2ncnc(Nc3ccc(F)c(Cl)c3)c2cc1OCCCN1CCOCC1 [gefitinib]
Outline: as §1

[11] = compound: CS(=O)(=O)CCNCc1ccc(-c2ccc3ncnc(Nc4ccc(OCc5cccc(F)c5)c(Cl)c4)c3c2)o1 [lapatinib]
Outline: as §1

[12] = compound: CS(=O)(=O)N1CCN(Cc2cc3nc(-c4cccc5[nH]ncc45)nc(N4CCOCC4)c3s2)CC1 [pictilisib]
Outline: as §1

[13] = compound: C[C@@H](Oc1cc(-c2cnn(C3CCNCC3)c2)cnc1N)c1c(Cl)ccc(F)c1Cl [crizotinib]
Outline: as §1

[14] = compound: C[C@H](C1=CC=C(C=C1)C(=O)NC2=C3C=CNC3=NC=C2)N
Outline: as §1

[15] = compound: C[C@H](Nc1ncnc2nc[nH]c12)c1cc2cccc(Cl)c2c(=O)n1-c1ccccc1 [duvelisib]
Outline: as §1

[16] = compound: Cc1cc(Nc2cc(CN3CCOCC3)c3nc(C)c(Cc4ccc(Cl)cc4F)n3n2)n[nH]1 [gandotinib]
Outline: as §1

[17] = compound: Cc1cc(Nc2cc(N3CCN(C)CC3)nc(Sc3ccc(NC(=O)C4CC4)cc3)n2)n[nH]1 [tozasertib]
Outline: as §1

[18] = compound: Cc1ccc(-n2nc(C(C)(C)C)cc2NC(=O)Nc2ccc(OCCN3CCOCC3)c3ccccc23)cc1 [doramapimod]
Outline: as §1

[19] = compound: Cc1ccc(NC(=O)c2ccc(CN3CC[C@H](N(C)C)C3)c(C(F)(F)F)c2)cc1Nc1nccc(-c2cncnc2)n1 [bafetinib]
Outline: as §1

[20] = compound: Cc1cccc(CC(=O)N2CCc3c2ccc(-c2cn(C)c4ncnc(N)c24)c3F)n1
Outline: as §1

| Target | log2 fold change [1] | log2 fold change [2] | log2 fold change [3] | log2 fold change [4] | log2 fold change [5] | log2 fold change [6] | log2 fold change [7] | log2 fold change [8] | log2 fold change [9] | log2 fold change [10] | log2 fold change [11] | log2 fold change [12] | log2 fold change [13] | log2 fold change [14] | log2 fold change [15] | log2 fold change [16] | log2 fold change [17] | log2 fold change [18] | log2 fold change [19] | log2 fold change [20] |
| --- | --- | --- | --- | --- | --- | --- | --- | --- | --- | --- | --- | --- | --- | --- | --- | --- | --- | --- | --- | --- |
| N6AMT1 (UniProt Q9Y5N5) | inactive: 0.062 | inactive: 0.026 | inactive: 0.048 | active: 0.361 | inactive: 0.021 | inactive: -0.011 | inactive: 0.069 | inactive: -0.084 | inactive: 0.004 | inactive: -0.045 | inactive: -0.018 | inactive: -0.038 | inactive: -0.02 | active: 0.34 | inactive: -0.017 | inactive: -0.033 | inactive: 0.008 | inactive: 0.014 | inactive: -0.109 | inactive: -0.098 |
| NCAPH2 (UniProt Q6IBW4) | inactive: 0.038 | inactive: -0.193 | inactive: 0 | inactive: 0.005 | inactive: -0.084 | inactive: 0.064 | inactive: -0.039 | inactive: -0.027 | inactive: 0.01 | inactive: -0.048 | inactive: -0.075 | inactive: -0.023 | inactive: -0.04 | inactive: -0.01 | inactive: -0.03 | inactive: -0.052 | inactive: 0.058 | inactive: -0.051 | inactive: -0.036 | inactive: 0.185 |
| NCK2 (UniProt O43639) | inactive: 0.04 | inactive: -0.073 | inactive: 0.081 | inactive: -0.033 | inactive: -0.139 | inactive: 0.011 | inactive: -0.128 | inactive: 0.05 | inactive: 0.015 | inactive: 0.084 | inactive: -0.014 | inactive: -0.089 | inactive: 0.037 | inactive: 0.029 | inactive: 0.034 | inactive: -0.024 | inactive: 0.045 | inactive: 0.092 | inactive: 0.012 | inactive: 0 |
| MYO9A isoform 4 (UniProt B2RTY4) | inactive: 0.034 | inactive: -0.077 | inactive: -0.013 | inactive: -0.026 | inactive: 0.015 | – | – | inactive: -0.035 | inactive: 0.04 | inactive: 0.009 | inactive: -0.027 | inactive: 0.022 | inactive: -0.03 | inactive: -0.014 | inactive: -0.019 | inactive: -0.044 | – | inactive: 0.005 | inactive: -0.103 | inactive: 0.036 |
| NCKAP5L (UniProt Q9HCH0) | inactive: -0.044 | inactive: 0.003 | inactive: 0.041 | – | inactive: 0 | inactive: 0.066 | inactive: 0.036 | inactive: -0.056 | inactive: -0.057 | inactive: 0.056 | inactive: 0.04 | – | inactive: 0.008 | inactive: 0.02 | inactive: 0.164 | inactive: -0.066 | inactive: -0.124 | inactive: -0.072 | – | inactive: 0.065 |
| NBDY, A0A0U1RRE5 | inactive: 0.014 | inactive: 0.063 | inactive: -0.063 | inactive: 0.193 | inactive: 0.161 | – | – | inactive: 0.105 | inactive: 0.061 | inactive: -0.195 | inactive: 0.069 | inactive: -0.074 | inactive: 0.078 | inactive: 0.059 | inactive: 0.062 | inactive: -0.037 | – | inactive: -0.348 | inactive: -0.025 | inactive: -0.128 |
| MYO18A (UniProt Q92614) | inactive: 0 | inactive: 0.003 | inactive: -0.002 | inactive: 0.012 | inactive: 0.043 | inactive: -0.006 | inactive: 0.006 | inactive: -0.018 | inactive: 0.016 | inactive: 0.009 | inactive: -0.02 | inactive: -0.015 | inactive: -0.005 | inactive: -0.015 | inactive: -0.014 | inactive: -0.006 | inactive: -0.004 | inactive: 0.041 | inactive: 0 | inactive: 0.027 |
| MYL3 (UniProt P08590) | inactive: 0.047 | inactive: 0.023 | inactive: -0.046 | inactive: -0.009 | – | inactive: 0.012 | inactive: -0.035 | inactive: 0.028 | inactive: -0.014 | inactive: -0.119 | inactive: 0 | inactive: 0.057 | inactive: 0.105 | inactive: 0.142 | – | inactive: -0.079 | inactive: 0.031 | inactive: -0.017 | inactive: -0.141 | inactive: -0.024 |
| MYLK3 (UniProt Q32MK0) | inactive: 0.306 | inactive: 0.039 | inactive: -0.048 | – | – | inactive: -0.003 | inactive: 0.328 | inactive: -0.014 | inactive: -0.136 | inactive: 0.045 | inactive: 0.081 | inactive: -0.035 | inactive: -0.023 | inactive: 0.219 | – | inactive: -0.333 | – | inactive: -0.001 | inactive: -0.085 | inactive: -0.436 |
| NASP (UniProt P49321) | inactive: 0.031 | inactive: 0.035 | inactive: -0.029 | inactive: -0.03 | inactive: -0.009 | inactive: -0.005 | inactive: -0.034 | inactive: 0 | inactive: 0.012 | inactive: 0.009 | inactive: -0.001 | inactive: 0.014 | inactive: 0.04 | inactive: 0.019 | inactive: 0.022 | inactive: -0.004 | inactive: 0 | inactive: -0.027 | inactive: 0.019 | inactive: -0.054 |
| NAPRT (UniProt Q6XQN6) | inactive: 0.015 | inactive: 0 | inactive: -0.009 | inactive: 0.005 | inactive: -0.07 | inactive: 0.007 | inactive: -0.022 | inactive: 0.012 | inactive: -0.032 | inactive: 0.021 | inactive: 0.008 | inactive: 0.05 | inactive: 0.046 | inactive: 0.03 | inactive: 0.019 | inactive: -0.06 | inactive: 0.039 | inactive: 0.034 | inactive: 0.034 | inactive: -0.074 |
| MZT2B (UniProt Q6NZ67) | inactive: -0.037 | inactive: 0.001 | inactive: 0.007 | inactive: 0.14 | – | inactive: -0.035 | inactive: -0.145 | inactive: -0.031 | inactive: -0.089 | inactive: 0.032 | inactive: -0.004 | inactive: -0.136 | inactive: 0.035 | inactive: 0.016 | – | inactive: -0.008 | inactive: 0.035 | inactive: 0.021 | inactive: -0.128 | inactive: 0.095 |
| MYO10 (UniProt Q9HD67) | inactive: 0.048 | inactive: 0.211 | inactive: -0.012 | inactive: -0.106 | – | – | – | inactive: 0.021 | – | inactive: 0.087 | – | inactive: 0.076 | inactive: -0.042 | active: 0.696 | – | inactive: -0.016 | – | inactive: -0.321 | inactive: -0.456 | inactive: -0.029 |
| NARS1 (UniProt O43776) | inactive: 0.024 | inactive: -0.028 | inactive: 0.001 | inactive: -0.021 | inactive: -0.03 | inactive: 0.005 | inactive: 0.047 | inactive: 0.015 | inactive: 0.057 | inactive: -0.005 | inactive: 0.011 | inactive: 0.017 | inactive: -0.024 | inactive: 0.016 | inactive: 0.025 | inactive: -0.025 | inactive: 0.049 | inactive: 0.029 | inactive: -0.017 | inactive: 0.004 |
| MYL6 isoform 2 (UniProt P60660) | inactive: 0.008 | inactive: 0.062 | inactive: 0.075 | inactive: -0.221 | inactive: 0.037 | inactive: -0.082 | inactive: -0.158 | inactive: 0 | inactive: -0.021 | inactive: -0.07 | inactive: -0.012 | – | inactive: -0.026 | inactive: 0.04 | inactive: -0.039 | inactive: 0.143 | inactive: -0.088 | inactive: -0.032 | – | inactive: 0.204 |
| MUS81 (UniProt Q96NY9) | inactive: 0.014 | inactive: -0.469 | inactive: 0.034 | – | inactive: 0.066 | – | – | inactive: 0.043 | inactive: 0.116 | inactive: -0.025 | inactive: 0.046 | inactive: 0.156 | inactive: -0.216 | inactive: -0.077 | inactive: -0.025 | inactive: 0.135 | – | inactive: 0.045 | inactive: -0.246 | inactive: 0.019 |

Two records picked at random from the list so far:

| Target | log2 fold change [1] | log2 fold change [2] | log2 fold change [3] | log2 fold change [4] | log2 fold change [5] | log2 fold change [6] | log2 fold change [7] | log2 fold change [8] | log2 fold change [9] | log2 fold change [10] | log2 fold change [11] | log2 fold change [12] | log2 fold change [13] | log2 fold change [14] | log2 fold change [15] | log2 fold change [16] | log2 fold change [17] | log2 fold change [18] | log2 fold change [19] | log2 fold change [20] |
| --- | --- | --- | --- | --- | --- | --- | --- | --- | --- | --- | --- | --- | --- | --- | --- | --- | --- | --- | --- | --- |
| NCK2 (UniProt O43639) | inactive: 0.04 | inactive: -0.073 | inactive: 0.081 | inactive: -0.033 | inactive: -0.139 | inactive: 0.011 | inactive: -0.128 | inactive: 0.05 | inactive: 0.015 | inactive: 0.084 | inactive: -0.014 | inactive: -0.089 | inactive: 0.037 | inactive: 0.029 | inactive: 0.034 | inactive: -0.024 | inactive: 0.045 | inactive: 0.092 | inactive: 0.012 | inactive: 0 |
| MYL6 isoform 2 (UniProt P60660) | inactive: 0.008 | inactive: 0.062 | inactive: 0.075 | inactive: -0.221 | inactive: 0.037 | inactive: -0.082 | inactive: -0.158 | inactive: 0 | inactive: -0.021 | inactive: -0.07 | inactive: -0.012 | – | inactive: -0.026 | inactive: 0.04 | inactive: -0.039 | inactive: 0.143 | inactive: -0.088 | inactive: -0.032 | – | inactive: 0.204 |
